According to publication PMC6814103:
Results are given in words; binding and its absence hold for the method and conditions named. Binding seen in cells or lysates may run through a third protein. Some results given as binding are weak or reduced against the parent protein; the word gives no strength. Sequences can lack the tags named with a protein.

The chains behind the UniProt entries cited, without tags or fusion partners.
UniProt P62993: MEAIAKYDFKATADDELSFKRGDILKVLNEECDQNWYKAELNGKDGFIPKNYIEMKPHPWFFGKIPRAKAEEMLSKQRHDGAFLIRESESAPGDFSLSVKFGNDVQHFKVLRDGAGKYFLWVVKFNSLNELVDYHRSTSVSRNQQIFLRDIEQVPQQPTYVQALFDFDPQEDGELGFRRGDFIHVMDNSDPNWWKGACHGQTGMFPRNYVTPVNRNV

Experiments:
Gab1-WT-GFP = molecular target: T1, Gab1-WT-GFP (UniProt Q9QYY0); assay: co-IP; lysates of HEK293 Gab1-KO cells transfected with Gab1-WT-GFP or Gab1-ΔGrb2-GFP, serum-starved 4 h, Hy-IL-6 (50 ng/ml) 15 min; antibody against the GFP tag (1 μg) at 4 °C over night, Protein G-Dynabeads 4 h, three washes (50 mM Tris/HCl pH 7.4, 100 mM NaCl, 1 mM EDTA, 0.1% Nonidet P-40); blots for (p)SHP2, Grb2, Gab1, SHP2, GFP
T1 sequence: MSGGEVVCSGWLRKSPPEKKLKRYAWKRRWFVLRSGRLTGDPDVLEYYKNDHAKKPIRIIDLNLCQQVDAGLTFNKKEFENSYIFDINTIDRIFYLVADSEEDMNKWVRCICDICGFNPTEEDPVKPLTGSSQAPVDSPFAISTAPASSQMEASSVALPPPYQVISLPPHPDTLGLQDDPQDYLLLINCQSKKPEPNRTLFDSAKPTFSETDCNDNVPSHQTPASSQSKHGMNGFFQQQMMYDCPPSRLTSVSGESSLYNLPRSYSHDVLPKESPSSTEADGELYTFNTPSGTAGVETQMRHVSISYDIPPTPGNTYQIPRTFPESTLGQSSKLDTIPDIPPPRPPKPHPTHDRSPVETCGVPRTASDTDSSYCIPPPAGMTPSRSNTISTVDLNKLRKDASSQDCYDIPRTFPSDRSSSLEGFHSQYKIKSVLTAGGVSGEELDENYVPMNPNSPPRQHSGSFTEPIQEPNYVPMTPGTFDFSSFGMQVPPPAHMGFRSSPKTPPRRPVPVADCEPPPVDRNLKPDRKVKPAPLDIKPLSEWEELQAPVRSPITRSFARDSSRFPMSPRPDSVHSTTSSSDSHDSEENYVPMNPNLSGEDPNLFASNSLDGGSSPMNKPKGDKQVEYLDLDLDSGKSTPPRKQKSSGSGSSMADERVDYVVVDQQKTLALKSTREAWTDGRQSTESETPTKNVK

Gab1-ΔGrb2-GFP = molecular target: T2, Gab1-ΔGrb2-GFP (UniProt Q9QYY0); assay: as above
T2 sequence: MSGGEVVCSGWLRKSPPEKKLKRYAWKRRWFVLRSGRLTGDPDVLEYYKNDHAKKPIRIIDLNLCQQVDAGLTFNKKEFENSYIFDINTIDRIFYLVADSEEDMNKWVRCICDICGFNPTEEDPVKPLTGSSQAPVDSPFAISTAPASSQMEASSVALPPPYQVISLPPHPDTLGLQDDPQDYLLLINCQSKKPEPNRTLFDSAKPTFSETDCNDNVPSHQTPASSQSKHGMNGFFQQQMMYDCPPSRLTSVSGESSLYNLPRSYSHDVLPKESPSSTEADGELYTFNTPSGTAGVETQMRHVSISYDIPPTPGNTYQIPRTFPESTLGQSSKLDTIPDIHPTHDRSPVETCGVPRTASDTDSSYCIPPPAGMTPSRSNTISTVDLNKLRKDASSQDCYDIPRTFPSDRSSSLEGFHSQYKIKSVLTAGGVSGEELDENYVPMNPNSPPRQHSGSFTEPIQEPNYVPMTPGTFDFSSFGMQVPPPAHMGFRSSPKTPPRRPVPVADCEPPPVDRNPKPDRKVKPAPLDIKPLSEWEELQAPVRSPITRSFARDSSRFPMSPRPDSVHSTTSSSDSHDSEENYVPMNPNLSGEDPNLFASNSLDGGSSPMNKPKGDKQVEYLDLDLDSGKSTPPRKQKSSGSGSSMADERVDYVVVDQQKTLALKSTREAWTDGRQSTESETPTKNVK

growth factor receptor bound protein 2 (Grb2) (from UniProt P62993 1-217)
binding (Gab1-WT-GFP): binds | binding (Gab1-ΔGrb2-GFP): no binding
